Laboratory results from PubChem BioAssay AID1347423 (Functional Genomics Laboratory (NCATS/FGL), 2020).
About 210 (0.4%) of roughly 52,000 sequences were called active.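 Rule for the calls: active = gene whose silencing raises cell survival under the drug, median off-target-corrected z-score across its silencing RNAs 2 or more; inactive = the rest.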 The list shows a part of the results.

assay: Resistance to Poly (ADP-Ribose) Polymerase inhibitor: Gene Identification via Genome-wide siRNA Screen; conditions: mouse BRCA2 R2336H ES cells, olaparib, CellTiter-Glo viability; active compounds read high
Method in brief: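 Mouse BRCA2 R2336H ES cells were reverse-transfected with siRNA (20 nM final), treated at 48 h with 500 nM olaparib, and read by CellTiter-Glo after 72 h. Scores: MAD-based z per siRNA, median per gene, seed off-target correction.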

Sequence | z-score
GGAGAAAGUCCCAUUAGAGTT against Loh11cr2a | inactive: 2.42
GGAACCUUCAGAGCGACUUTT against Trib3 | inactive: -0.287
GGCAUACUACACAAAGCAGTT against 4933424F08Rik | inactive: -0.104
CCUCACUUCAGCAAAACCATT against 1200003E16Rik | inactive: 0.42
GGUAUUUUGUUUUUUGGGUTT against Olfm3 | inactive: -0.917
CCUGAACGACAGAUUGGCATT against Krt20 | inactive: 0.19
GGAUGAUGACAUUCACUUATT against Ntan1 | inactive: -0.897
GGAGGCUUUUCAGACCAAGTT against 3830406C13Rik | inactive: 1.21
GGGACCCUACAAAAUCAUUTT against Ganab | inactive: 0.37
GGUCCUAUUUAUUAAUACCTT against Emid1 | inactive: -0.32
GGACAGCUCUCUCCAUACATT against Tlr9 | inactive: -1.36
GCUGGACCCUUAAGUGUAATT against Bmyc | inactive: -0.727
UCUCCUUCCUAACUUCAACTT against E030010A14 | inactive: 0.4
GCAGGGAGGCAUCUUCUUUTT against Olfr3 | inactive: 0.8
GCACCAAACCAAUAUUAGUTT against Epb4.1l3 | inactive: 0.504
GGAGAAAAAAGUGAAACUCTT against Cntn4 | inactive: -0.782
GGAUCGAUAAACAAAUAAGTT against Tmem16d | inactive: -1.11
GGUCCUUCAUUUGGUUACATT against Dtna | inactive: -1.66
GGCACAGAAAAUCUUCAAATT against Ap2a1 | inactive: 1.67
GGUGAAUGGAACAGGUAAGTT against LOC237891 | inactive: -1.54
GGCUAAUCACUAGAUUAGATT against Ldb2 | inactive: 0.435
GCGAACUAUUCAAAAGUUATT against 4921504E06Rik | inactive: -0.433
GCCGAUGUAUCUACUUUGCTT against Rnase6 | inactive: 1.13

Exported as a markdown table: part of the list above

| Sequence | z-score |
| --- | --- |
| GCUGGACCCUUAAGUGUAATT against Bmyc | inactive: -0.727 |
| GCCGAUGUAUCUACUUUGCTT against Rnase6 | inactive: 1.13 |

Next part:

Sequence | z-score
GCAACAUCGUAUGUUAAUGTT against Slc9a4 | inactive: 0.819
GGUUGCUAUUAUUAUUGGATT against Fnbp4 | inactive: -0.969
GGAGACAGAGAUCAUUGAATT against Ruvbl2 | inactive: -1.21
GCCUCCCGGAAAUAUAGGUTT against 2610511M17Rik | inactive: 0.0433
GGAAAUUAUGACAUGCACCTT against Eya3 | inactive: 0.585
GCACCCAAACUUAAAAUAGTT against A230091H23 | inactive: -1.42
CCUCACAAAUAUACAGUUCTT against Pira2 | inactive: -1.68
CGACAUGUCAAAACUCACGTT against LOC244556 | inactive: 1.6
GGAAAUGUGGAGCUCAACGTT against 1810031K02Rik | inactive: -1.13
GCCACCAUGUGCAACAUACTT against Ifit2 | inactive: -1.07
GGAGAUAAAUGUGUAGACCTT against Matn3 | inactive: 1.68
GCCUGAGGAAUCGUGACAUTT against Olfr51 | inactive: 1.02
GGUCACACCCAUAAACUAATT against B630019K06Rik | inactive: -0.687
GGCAUUGAAUUACUUACAUTT against Slk | inactive: 0.152
GGUAUAAGGAUUCUUUGAATT against 4833435D08Rik | inactive: -0.362
GCGAAUUGGAACAGCUGACTT against Sh3glb1 | inactive: 1.09
CCAGAUUAACUACAAAUCCTT against B430203M17Rik | inactive: 0.188
CCCUGUUGAAGAGACGAGATT against BC028768 | inactive: 0.272
GGAAGACACUUAAAAAUUCTT against 1200013A08Rik | inactive: 0.131
GGAGACAUCAUCUGAAUAUTT against Hnmt | inactive: -0.102
GGGCUAGGUAGUGAUGGUCTT against Snrp70 | inactive: -2.33
GCCCAUGGGUACAUGCAAUTT against 1810065E05Rik | inactive: -0.214
GGAGAACAAGGUGACUUGGTT against Irx1 | inactive: 0.945

Sequence | z-score
GGUGUAUAAUAUGAGAUAGTT against Rdx | inactive: 0.749
GCAACACCUUAUGUUUCAUTT against Cab39 | inactive: 0.491
CCACCAUGCAACCUCCUGATT against Acsl6 | inactive: -2.42
CCUGUACCUGCGUAUUCAATT against Grap | inactive: 1.97
GGUGGUGGCAAAUAAAAUUTT against Smr2 | inactive: -0.171
GGGACCCUGAGAAAAGACATT against Tln1 | inactive: -2.21
GGAUUAUGGGAAUUAACUATT against Mpdz | inactive: 2.13
GGAAGCAUCUCAUUAUUCATT against Lamp2 | inactive: 0.333
GGUAACUUCCCAGGAGGGATT against Bcl9 | inactive: 0.0202
GGAUAUGGAUUCUCCCGAUTT against Krtap8-2 | inactive: 1.79
CGACUGCUUAAUGAUUCCCTT against Pfdn4 | inactive: -1.28
GGUGCAGUCUUAGGGAGGUTT against Rps6kb1 | inactive: -1.53
GGCUAUACUGUCAAUGUAUTT against Nsdhl | inactive: 0.34
GCAAUUGAAGCAAUUGACUTT against 2600013N14Rik | inactive: 0.537
GGAUGUCAGAAAACAGUGCTT against 1110055L24Rik | inactive: 0.505
GGUGGAUUGUCACACGAGUTT against Prkr | inactive: -0.725
GAGCAUUGUCUACCUGGAATT against V1rh3 | inactive: -0.57
GGGAGUUUCUUAUUCACACTT against Lgi1 | inactive: 0.16
GGGAGAGACAGAAAGCUUUTT against Olfr213 | inactive: -0.706
CCCACUGCCAAGUACAAUGTT against Dmwd | inactive: 0.541
GGCAUCUGUUACCCAGAAUTT against C130073D16Rik | inactive: -0.519
